Assay results published in patent US8912318B2, “Nucleobase-functionalized conformationally restricted nucleotides and oligonucleotides for targeting nucleic acids” (University of Idaho, priority 2009, dated 2014).
Some results were stated once for a whole list of compounds, not compound by compound. Some compounds share one range, which may span the group rather than tell each member.

Tested on: matched or singly mismatched DNA targets
Assay: Absorption spectra of single stranded probes and duplexes with DNA targets
Assay type: physicochemical
Conditions: hybridization to complementary DNA

| Substance | hypsochromic shifts in absorption and excitation maxima of the pyrene moiety |
| --- | --- |
| ON6: 5′-CG CAA CP″C AAC GC (DNA CGCAACNCAACGC; listed as DNA, chemistry not fully specified) [reference compound] | 3-7 nm |
| ON14: 5′-CG CAA CP′C AAC GC (DNA CGCAACNCAACGC; modified nucleotide P', chemistry not fully specified) | 3-7 nm |
| ON8: 5′-CG CAA TP″T AAC GC (DNA CGCAATNTAACGC; listed as DNA, chemistry not fully specified) [reference compound] | 3-7 nm |
| ON13: 5′-CG CAA AP′A AAC GC (DNA CGCAAANAAACGC; modified nucleotide P', chemistry not fully specified) | 3-7 nm |
| ON10: 5′-CG CAA CPC AAC GC (DNA CGCAACNCAACGC; listed as DNA, chemistry not fully specified) | 3-7 nm |
| ON16: 5′-CG CAA TP′T AAC GC (DNA CGCAATNTAACGC; modified nucleotide P', chemistry not fully specified) | 3-7 nm |
| ON11: 5′-CG CAA GPG AAC GC (DNA CGCAAGNGAACGC; listed as DNA, chemistry not fully specified) | 3-7 nm |
| ON5: 5′-CG CAA AP″A AAC GC (DNA CGCAAANAAACGC; listed as DNA, chemistry not fully specified) [reference compound] | 3-7 nm |
| ON7: 5′-CG CAA GP″G AAC GC (DNA CGCAAGNGAACGC; listed as DNA, chemistry not fully specified) [reference compound] | 3-7 nm |
| ON15: 5′-CG CAA GP′G AAC GC (DNA CGCAAGNGAACGC; modified nucleotide P', chemistry not fully specified) | 3-7 nm |
| ON9: 5′-CG CAA APA AAC GC (DNA CGCAAANAAACGC; listed as DNA, chemistry not fully specified) | 3-7 nm |
| ON12: 5′-CG CAA TPT AAC GC (DNA CGCAATNTAACGC; listed as DNA, chemistry not fully specified) | 3-7 nm |
